The other results are listed elsewhere or left out.
Compound: Cc1cc(ccc1-c1ccccc1)C(=O)N1CCCN(CC1)C(=O)CCl [compound 10]
Experiment: probe-labelled cysteine peptide fold change vs DMSO (competition) (log2 fold change); higher = less target engagement (more negative = stronger competition)
Conditions: THP-1, incubation time: 4 h
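Also: competitive profiling in live THP-1 cells: cysteine peptides tagged with an iodoacetamide desthiobiotin (IA-DTB) probe, intensity after compound treatment relative to DMSO-treated cells.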

Protein sequences, listed by entry. Tags and fused reporters are not part of them. Lines headed by an entry give the natural chain unless they say otherwise; changes in a name come on top.
UniProt Q8N8R7: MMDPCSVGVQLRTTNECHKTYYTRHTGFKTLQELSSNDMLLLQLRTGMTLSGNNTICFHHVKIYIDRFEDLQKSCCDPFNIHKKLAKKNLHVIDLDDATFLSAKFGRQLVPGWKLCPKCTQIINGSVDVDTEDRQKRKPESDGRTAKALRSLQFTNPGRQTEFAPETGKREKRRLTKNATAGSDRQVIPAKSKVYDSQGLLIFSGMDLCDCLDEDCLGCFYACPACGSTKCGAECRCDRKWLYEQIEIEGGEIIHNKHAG
UniProt Q8IUR7, whole entry, looked up: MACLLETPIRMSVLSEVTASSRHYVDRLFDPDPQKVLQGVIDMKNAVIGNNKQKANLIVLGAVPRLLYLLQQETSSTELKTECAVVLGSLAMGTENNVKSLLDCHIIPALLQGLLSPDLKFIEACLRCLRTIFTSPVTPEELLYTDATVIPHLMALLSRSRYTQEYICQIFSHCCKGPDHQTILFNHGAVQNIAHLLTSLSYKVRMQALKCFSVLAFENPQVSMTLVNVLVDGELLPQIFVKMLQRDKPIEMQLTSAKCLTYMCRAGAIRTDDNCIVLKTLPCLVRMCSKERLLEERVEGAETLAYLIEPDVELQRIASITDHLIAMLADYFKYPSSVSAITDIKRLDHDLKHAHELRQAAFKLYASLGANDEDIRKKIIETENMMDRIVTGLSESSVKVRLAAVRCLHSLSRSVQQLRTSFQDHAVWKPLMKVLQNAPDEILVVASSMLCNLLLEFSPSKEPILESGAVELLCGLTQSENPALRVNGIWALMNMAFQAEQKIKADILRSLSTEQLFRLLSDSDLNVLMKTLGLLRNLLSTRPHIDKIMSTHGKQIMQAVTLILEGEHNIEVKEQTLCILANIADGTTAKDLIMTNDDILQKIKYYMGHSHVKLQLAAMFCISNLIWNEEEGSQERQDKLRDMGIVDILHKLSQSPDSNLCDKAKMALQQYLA
UniProt Q92619: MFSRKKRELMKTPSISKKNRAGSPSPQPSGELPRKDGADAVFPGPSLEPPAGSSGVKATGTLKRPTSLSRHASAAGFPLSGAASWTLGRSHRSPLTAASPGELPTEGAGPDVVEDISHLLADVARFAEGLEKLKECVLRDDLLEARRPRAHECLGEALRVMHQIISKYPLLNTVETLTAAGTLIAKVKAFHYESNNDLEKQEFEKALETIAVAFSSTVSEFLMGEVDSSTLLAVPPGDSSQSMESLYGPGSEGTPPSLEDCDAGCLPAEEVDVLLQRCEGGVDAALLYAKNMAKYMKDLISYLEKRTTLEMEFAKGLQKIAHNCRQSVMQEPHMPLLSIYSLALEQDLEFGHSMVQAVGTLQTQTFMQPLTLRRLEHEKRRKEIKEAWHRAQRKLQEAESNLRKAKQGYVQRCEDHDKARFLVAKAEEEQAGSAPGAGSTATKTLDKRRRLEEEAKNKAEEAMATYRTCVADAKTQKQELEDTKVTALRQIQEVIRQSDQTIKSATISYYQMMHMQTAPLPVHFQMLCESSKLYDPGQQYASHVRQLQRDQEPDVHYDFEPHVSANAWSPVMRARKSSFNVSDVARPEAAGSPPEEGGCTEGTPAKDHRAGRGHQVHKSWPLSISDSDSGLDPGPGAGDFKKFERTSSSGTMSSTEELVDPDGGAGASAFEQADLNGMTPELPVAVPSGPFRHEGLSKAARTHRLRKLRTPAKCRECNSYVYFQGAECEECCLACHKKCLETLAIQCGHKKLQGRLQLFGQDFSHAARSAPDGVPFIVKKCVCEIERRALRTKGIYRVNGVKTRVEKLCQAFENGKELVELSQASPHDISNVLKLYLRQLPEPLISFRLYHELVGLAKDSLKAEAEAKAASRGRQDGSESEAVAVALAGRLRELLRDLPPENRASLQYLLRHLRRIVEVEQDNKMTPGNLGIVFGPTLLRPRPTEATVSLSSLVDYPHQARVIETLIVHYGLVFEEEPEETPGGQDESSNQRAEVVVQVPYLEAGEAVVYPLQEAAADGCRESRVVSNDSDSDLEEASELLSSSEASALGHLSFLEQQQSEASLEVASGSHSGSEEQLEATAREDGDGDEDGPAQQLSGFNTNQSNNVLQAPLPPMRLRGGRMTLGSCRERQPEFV
UniProt Q15041, whole entry: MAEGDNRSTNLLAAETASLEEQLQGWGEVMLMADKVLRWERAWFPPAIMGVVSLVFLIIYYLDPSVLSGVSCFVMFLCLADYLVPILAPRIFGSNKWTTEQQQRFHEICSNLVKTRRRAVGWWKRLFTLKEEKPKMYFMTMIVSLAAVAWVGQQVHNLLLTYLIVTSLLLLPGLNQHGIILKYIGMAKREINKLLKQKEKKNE
UniProt Q9UKG1: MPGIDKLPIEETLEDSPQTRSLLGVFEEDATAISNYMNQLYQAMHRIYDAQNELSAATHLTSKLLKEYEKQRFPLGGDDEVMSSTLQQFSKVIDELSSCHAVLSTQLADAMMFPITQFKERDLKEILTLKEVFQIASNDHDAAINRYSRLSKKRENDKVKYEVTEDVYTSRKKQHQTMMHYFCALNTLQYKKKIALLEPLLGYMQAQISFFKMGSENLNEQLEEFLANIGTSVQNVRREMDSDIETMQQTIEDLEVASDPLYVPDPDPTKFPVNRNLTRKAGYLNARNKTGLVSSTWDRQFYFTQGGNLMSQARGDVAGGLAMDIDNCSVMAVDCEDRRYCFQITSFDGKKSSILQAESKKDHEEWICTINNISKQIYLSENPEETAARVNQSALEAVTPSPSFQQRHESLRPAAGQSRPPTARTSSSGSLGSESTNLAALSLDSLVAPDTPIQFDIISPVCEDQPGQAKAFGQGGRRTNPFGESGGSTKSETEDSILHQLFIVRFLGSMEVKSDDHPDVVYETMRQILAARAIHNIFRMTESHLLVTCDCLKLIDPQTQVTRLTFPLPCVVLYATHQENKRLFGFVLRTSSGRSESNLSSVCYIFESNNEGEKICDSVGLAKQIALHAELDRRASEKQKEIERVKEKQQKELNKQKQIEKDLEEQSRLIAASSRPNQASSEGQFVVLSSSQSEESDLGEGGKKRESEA
UniProt O60306: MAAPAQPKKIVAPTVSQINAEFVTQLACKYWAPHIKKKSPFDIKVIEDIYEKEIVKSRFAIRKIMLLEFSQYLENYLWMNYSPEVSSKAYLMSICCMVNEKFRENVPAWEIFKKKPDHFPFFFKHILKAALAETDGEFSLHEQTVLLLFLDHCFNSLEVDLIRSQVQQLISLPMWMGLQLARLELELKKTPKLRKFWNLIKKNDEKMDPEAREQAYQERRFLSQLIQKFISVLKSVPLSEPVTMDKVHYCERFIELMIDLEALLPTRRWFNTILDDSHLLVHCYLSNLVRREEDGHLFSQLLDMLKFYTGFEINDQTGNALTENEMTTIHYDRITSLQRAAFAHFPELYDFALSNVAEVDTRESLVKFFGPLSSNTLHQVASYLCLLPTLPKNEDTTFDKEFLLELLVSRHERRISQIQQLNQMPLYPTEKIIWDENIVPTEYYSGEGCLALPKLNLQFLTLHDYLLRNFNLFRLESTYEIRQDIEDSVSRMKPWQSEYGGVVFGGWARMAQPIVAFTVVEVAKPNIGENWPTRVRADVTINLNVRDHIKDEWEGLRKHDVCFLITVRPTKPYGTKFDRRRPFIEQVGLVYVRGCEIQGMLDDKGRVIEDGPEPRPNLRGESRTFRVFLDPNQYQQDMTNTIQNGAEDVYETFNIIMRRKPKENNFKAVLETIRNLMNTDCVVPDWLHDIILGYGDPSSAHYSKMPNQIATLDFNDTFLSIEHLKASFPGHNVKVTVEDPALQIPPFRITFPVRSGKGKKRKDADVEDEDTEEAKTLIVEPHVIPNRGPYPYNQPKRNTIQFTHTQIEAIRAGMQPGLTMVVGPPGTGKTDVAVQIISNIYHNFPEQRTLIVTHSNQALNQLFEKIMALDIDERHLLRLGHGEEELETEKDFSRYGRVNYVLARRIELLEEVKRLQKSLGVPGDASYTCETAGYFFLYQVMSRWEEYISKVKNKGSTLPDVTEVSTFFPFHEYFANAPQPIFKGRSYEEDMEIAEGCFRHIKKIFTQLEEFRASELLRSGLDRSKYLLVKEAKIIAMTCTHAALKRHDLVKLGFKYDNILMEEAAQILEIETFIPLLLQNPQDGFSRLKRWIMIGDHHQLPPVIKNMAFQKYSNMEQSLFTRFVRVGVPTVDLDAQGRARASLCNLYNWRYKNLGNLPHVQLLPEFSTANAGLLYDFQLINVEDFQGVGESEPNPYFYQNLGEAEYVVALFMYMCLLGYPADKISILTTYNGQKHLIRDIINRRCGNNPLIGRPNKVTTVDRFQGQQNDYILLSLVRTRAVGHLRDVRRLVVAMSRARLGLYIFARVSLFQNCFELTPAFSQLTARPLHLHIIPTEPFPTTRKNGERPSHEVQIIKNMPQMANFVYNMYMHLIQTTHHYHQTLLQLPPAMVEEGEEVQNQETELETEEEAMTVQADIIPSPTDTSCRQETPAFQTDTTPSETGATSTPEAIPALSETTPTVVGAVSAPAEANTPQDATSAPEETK
UniProt Q15052: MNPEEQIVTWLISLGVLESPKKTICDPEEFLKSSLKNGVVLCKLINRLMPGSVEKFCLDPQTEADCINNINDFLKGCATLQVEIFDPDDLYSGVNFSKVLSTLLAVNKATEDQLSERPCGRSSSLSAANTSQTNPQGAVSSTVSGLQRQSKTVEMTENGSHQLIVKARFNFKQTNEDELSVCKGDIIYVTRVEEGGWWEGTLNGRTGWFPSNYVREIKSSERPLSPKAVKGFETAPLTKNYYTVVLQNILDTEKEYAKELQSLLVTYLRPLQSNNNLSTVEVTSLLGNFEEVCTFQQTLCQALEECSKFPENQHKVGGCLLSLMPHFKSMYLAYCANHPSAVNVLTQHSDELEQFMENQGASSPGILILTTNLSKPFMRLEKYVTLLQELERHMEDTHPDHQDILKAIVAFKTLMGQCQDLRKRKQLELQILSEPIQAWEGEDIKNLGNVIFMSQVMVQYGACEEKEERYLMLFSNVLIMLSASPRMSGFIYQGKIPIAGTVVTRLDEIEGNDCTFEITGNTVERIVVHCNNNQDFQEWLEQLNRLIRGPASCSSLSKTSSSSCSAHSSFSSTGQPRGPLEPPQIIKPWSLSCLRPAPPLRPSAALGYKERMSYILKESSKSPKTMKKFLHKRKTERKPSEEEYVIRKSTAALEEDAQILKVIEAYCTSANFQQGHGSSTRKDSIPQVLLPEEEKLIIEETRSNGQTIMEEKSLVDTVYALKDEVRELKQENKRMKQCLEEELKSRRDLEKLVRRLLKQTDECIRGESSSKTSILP
UniProt Q92974: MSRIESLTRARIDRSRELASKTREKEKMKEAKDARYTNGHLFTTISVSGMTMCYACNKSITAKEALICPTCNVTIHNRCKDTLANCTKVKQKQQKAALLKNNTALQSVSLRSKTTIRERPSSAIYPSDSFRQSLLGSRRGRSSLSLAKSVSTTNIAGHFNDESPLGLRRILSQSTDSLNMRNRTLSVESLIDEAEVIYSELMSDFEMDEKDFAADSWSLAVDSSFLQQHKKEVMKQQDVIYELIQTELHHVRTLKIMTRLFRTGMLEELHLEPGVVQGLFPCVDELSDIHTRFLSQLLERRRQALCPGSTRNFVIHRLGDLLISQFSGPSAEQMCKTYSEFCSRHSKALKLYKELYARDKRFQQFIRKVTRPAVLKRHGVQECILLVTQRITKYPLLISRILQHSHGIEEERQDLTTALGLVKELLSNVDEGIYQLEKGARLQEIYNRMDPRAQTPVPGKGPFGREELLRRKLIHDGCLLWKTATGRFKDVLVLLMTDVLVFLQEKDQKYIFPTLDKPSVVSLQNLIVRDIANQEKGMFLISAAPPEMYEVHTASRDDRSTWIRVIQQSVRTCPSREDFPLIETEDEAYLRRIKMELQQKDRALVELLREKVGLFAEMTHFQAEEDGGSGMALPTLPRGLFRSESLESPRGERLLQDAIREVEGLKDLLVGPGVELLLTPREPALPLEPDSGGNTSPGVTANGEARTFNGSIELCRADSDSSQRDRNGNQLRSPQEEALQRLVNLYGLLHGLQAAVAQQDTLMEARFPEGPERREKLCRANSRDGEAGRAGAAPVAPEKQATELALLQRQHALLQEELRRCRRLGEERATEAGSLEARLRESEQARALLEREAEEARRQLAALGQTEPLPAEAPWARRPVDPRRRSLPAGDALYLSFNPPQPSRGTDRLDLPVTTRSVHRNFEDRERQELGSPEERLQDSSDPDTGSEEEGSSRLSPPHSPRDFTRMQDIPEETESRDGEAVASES
UniProt P40616: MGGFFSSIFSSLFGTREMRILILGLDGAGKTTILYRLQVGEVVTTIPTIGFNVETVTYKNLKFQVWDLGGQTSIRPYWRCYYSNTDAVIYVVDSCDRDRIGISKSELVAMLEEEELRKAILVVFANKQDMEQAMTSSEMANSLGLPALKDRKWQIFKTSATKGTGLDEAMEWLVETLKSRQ
UniProt P61204: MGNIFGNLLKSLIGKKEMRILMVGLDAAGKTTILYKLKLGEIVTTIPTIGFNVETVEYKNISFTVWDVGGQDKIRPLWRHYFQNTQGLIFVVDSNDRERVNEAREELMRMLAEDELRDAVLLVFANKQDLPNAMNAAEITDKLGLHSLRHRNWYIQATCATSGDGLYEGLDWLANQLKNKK

Target	probe-labelled cysteine peptide fold change (10 µM)	probe-labelled cysteine peptide fold change (50 µM)
ARPC2_O15144_120_RNCFASVFEK (UniProt O15144)	-0.0863	-0.105
ARHGDIB_P52566_76_LTLVCESAPGPITMDLTGDLEALK (UniProt P52566)	0.0549	0.287
ARL14EP_Q8N8R7_75_SCCDPFNIHKK (UniProt Q8N8R7)	-0.094	-0.403
ARMC8_Q8IUR7_3_ACLLETPIR (UniProt Q8IUR7)	0.0508	0.166
ARL14EP_Q8N8R7_17_TTNECHK (UniProt Q8N8R7)	0.04	-0.0714
APP_P05067_117_CLVGEFVSDALLVPDK (UniProt P05067)	-0.46	-0.535
ARHGAP35_Q9NRY4_89_SLEDCVECK (UniProt Q9NRY4)	0.0619	-0.171
ARHGAP45_Q92619_783_CVCEIER (UniProt Q92619)	0.0756	-0.253
ARL6IP1_Q15041_109_FHEICSNLVK (UniProt Q15041)	0.0846	0.185
ARHGEF18_Q6ZSZ5_692_QLHLEGMLCWK (UniProt Q6ZSZ5)	-0.117	0.011
ARID1A_O14497_2043_EEEQDQGVSCNK (UniProt O14497)	0.579	0.698
APPL1_Q9UKG1_183_QHQTMMHYFCALNTLQYK (UniProt Q9UKG1)	-0.0142	0.0612
AQR_O60306_997_SYEEDMEIAEGCFR (UniProt O60306)	0.122	0.0038
ARID4B_Q4LE39_107_SSLCLK (UniProt Q4LE39)	0.0531	-0.0592
ARHGEF6_Q15052_418_TLMGQCQDLR (UniProt Q15052)	0.114	0.31
ARHGEF7_Q14155_490_TLGNVTYMSQVLIQCAGSEEK (UniProt Q14155)	-0.204	-1.18
ARMC6_Q6NXE6_484_DLGCHVELR (UniProt Q6NXE6)	-0.222	-0.573
ARHGEF2_Q92974_478_KLIHDGCLLWK (UniProt Q92974)	-0.0509	-0.328
ARAF_P10398_538_ISSNCPK (UniProt P10398)	0.0327	-0.312
ARID2_Q68CP9_382_GMEILGNLCK (UniProt Q68CP9)	0.216	0.153
ARL1_P40616_80_CYYSNTDAVIYVVDSCDRDR (UniProt P40616)	0.0978	-0.3

An excerpt of these results, as a markdown table.

| Target | probe-labelled cysteine peptide fold change (10 µM) | probe-labelled cysteine peptide fold change (50 µM) |
| --- | --- | --- |
| APPL1_Q9UKG1_183_QHQTMMHYFCALNTLQYK (UniProt Q9UKG1) | -0.0142 | 0.0612 |
| AQR_O60306_997_SYEEDMEIAEGCFR (UniProt O60306) | 0.122 | 0.0038 |
| ARID4B_Q4LE39_107_SSLCLK (UniProt Q4LE39) | 0.0531 | -0.0592 |

Remaining list, next part.

Target	probe-labelled cysteine peptide fold change (10 µM)	probe-labelled cysteine peptide fold change (50 µM)
ARHGAP18_Q8N392_323_DSGLFCVPLTALLEQDQR (UniProt Q8N392)	-0.0472	-0.00525
ARHGAP30_Q7Z6I6_1021_TQTCTEGGDYCLIPR (UniProt Q7Z6I6)	-0.16	-0.29
ARHGAP9_Q9BRR9_542_DQVFGCQLESLCQR (UniProt Q9BRR9)	-0.108	0.0653
ARHGEF2_Q92974_573_TCPSREDFPLIETEDEAYLR (UniProt Q92974)	-0.0619	-0.269
ARFGAP2_Q8N6H7_97_QHGCTANDANTK (UniProt Q8N6H7)	-0.0453	-0.0512
ARPC1B_O15143_13_AYHSFLVEPISCHAWNK (UniProt O15143)	0.161	-0.0729
ARHGAP4_P98171_569_GEDPLVEGCTAHDLDSVAGVLK (UniProt P98171)	-0.341	-0.0718
ARHGEF6_Q15052_25_TICDPEEFLK (UniProt Q15052)	-0.182	-0.254
ARRB1_P49407_251+269_CPVAMEEADDTVAPSSTFCK (UniProt P49407)	0.144	-0.227
ARFGEF1_Q9Y6D6_1685_LLDCLLESHR (UniProt Q9Y6D6)	0.0662	0.00546
ARHGEF2_Q92974_86_DTLANCTK (UniProt Q92974)	-0.192	-0.167
APPL1_Q9UKG1_570_LTFPLPCVVLYATHQENKR (UniProt Q9UKG1)	-0.138	-0.0139
ARHGAP26_Q9UNA1_142_YCGILEK (UniProt Q9UNA1)	-0.128	-0.125
ARHGEF10_O15013_1030_STVMSLACTSQSLYAGLVNGAVASYAR (UniProt O15013)	0.309	0.376
ARHGAP1_Q07960_91_IIVFSACR (UniProt Q07960)	0.048	0.103
ARHGEF6_Q15052_119_ATEDQLSERPCGR (UniProt Q15052)	-0.14	-0.428
ARNT_P27540_265_RSFICR (UniProt P27540)	0.145	0.0564
ARHGEF1_Q92888_892_QLEELEEEFCR (UniProt Q92888)	-0.148	0.153
ARF3_P61204_159_HRNWYIQATCATSGDGLYEGLDWLANQLK (UniProt P61204)	-0.312	-0.322
ARHGAP45_Q92619_153_AHECLGEALR (UniProt Q92619)	-0.0917	-0.0239
ARHGAP45_Q92619_278_CEGGVDAALLYAK (UniProt Q92619)	-0.0931	-0.411

Reference: the supplement of paper PMC12067093, “Discovery and optimisation of a covalent ligand for TRIM25 and its application to targeted protein ubiquitination” (Chemical Science, 2025)
